# Measured values: PMC7862700
# Chains of the proteins cited; added tags and fusions are not shown. Lines headed by an entry give the natural chain unless they say otherwise; changes in a name come on top.
# UniProt Q9Y603: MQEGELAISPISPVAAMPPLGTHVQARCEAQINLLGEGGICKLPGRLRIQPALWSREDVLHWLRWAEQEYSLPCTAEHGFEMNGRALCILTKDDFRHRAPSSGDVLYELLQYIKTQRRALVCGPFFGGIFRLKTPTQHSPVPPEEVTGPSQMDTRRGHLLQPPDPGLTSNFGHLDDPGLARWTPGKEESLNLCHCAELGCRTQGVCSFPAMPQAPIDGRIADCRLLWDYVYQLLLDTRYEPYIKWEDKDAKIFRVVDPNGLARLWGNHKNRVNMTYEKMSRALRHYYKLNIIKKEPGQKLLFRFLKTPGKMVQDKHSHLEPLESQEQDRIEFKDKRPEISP
# UniProt P41212: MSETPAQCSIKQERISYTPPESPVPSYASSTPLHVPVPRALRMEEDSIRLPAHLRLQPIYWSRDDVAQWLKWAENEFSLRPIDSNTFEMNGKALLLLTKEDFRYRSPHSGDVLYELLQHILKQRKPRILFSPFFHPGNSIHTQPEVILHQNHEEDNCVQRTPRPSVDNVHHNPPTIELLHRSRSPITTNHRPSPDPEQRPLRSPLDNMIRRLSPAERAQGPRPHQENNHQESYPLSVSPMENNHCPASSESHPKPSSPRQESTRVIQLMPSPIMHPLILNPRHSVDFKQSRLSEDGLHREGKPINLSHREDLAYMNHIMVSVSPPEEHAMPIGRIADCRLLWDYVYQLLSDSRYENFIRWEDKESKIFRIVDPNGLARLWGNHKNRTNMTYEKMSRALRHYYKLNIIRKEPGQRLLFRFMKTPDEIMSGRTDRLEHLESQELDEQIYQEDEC
# The entries are a selection whose mix differs from that of the whole data set. At the low end of the ranking the order means little.
# Target: T1, ELF3 (UniProt P78545)
# T1 sequence: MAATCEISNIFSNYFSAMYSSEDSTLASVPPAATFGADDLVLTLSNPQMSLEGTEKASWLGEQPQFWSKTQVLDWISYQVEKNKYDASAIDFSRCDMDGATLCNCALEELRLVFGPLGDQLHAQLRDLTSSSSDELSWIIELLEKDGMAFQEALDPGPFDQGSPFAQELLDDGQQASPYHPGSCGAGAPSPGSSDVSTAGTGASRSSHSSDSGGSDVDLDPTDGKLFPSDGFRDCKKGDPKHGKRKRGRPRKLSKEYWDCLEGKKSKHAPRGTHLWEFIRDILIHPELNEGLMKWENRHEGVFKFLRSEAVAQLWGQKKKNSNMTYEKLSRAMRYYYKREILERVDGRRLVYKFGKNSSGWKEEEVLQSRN
# Assay: DAPPL (digital affinity profiling via proximity ligation, sequencing)
# Conditions: 10 mM Tris-HCl pH 7.5, 50 mM NaCl, 1 mM DTT, 4% glycerol, room temperature, 30 min; GST-TFs on glutathione beads, 16-mer random dsDNA library, 0.1% …; high values mean tight binding; double strand, one strand shown; scale: fold enrichment (6-mer frequency, TF over GST control)
row,Sequence,binding signal
1,CGGGGG,0.405
2,TGTCGA,0.829
3,GAGTAC,0.55
4,GTAACG,0.828
5,CACAGG,0.945
6,GAGACA,0.413
7,GGGCGC,0.585
8,GGTGTG,0.69
9,TGCGTG,0.681
10,CGTGGT,0.541
11,GAGGTA,0.679
12,TCGGGT,0.548
13,GGGCCC,0.882
14,AGGCTG,0.478
15,CGGAAT,0.961
16,GTCGCC,0.88
17,CGTGAC,0.59
18,CAGTCG,0.178
19,GGACAG,0.56
20,CGGGTT,0.897

row,Sequence,binding signal
1,CCGCGA,0.694
2,CGGACA,0.848
3,TACCAG,0.879
4,GCGGCG,0.791
5,AGATCG,0.477
6,AGGTAC,0.903
7,GGTCCG,0.67
8,CGTGAA,0.474
9,AGCAGT,0.694
10,AGTAGT,0.939
11,CGGTGA,0.477
12,TGTGAA,0.774
13,GTCATA,0.731
14,CATAGG,0.879
15,CCATGT,0.7
16,ACAGGG,0.7
17,GAGATA,0.666
18,TGACGT,0.714
19,TGGGTC,0.679

# Target: ETV7 (UniProt Q9Y603)
# Assay: as above
# Conditions: 10 mM Tris-HCl pH 7.5, 50 mM NaCl, 1 mM DTT, 4% glycerol, room temperature, 30 min; GST-TFs on glutathione beads, 16-mer random dsDNA library, 0.1% …; high values mean tight binding; double strand, one strand shown; scale: fold enrichment (6-mer frequency, TF over GST control)
row,Sequence,binding signal
1,CGGGGG,0.446
2,TGTCGA,0.91
3,GAGTAC,0.531
4,GTAACG,0.925
5,CACAGG,0.977
6,GAGACA,0.469
7,GGGCGC,0.558
8,GGTGTG,0.693
9,TGCGTG,0.645
10,CGTGGT,0.646
11,GAGGTA,0.769
12,TCGGGT,0.641
13,GGGCCC,0.756
14,AGGCTG,0.635
15,CGGAAT,0.876
16,GTCGCC,0.792
17,CGTGAC,0.56
18,CAGTCG,0.256
19,GGACAG,0.631
20,CGGGTT,0.888

row,Sequence,binding signal
1,CCGCGA,0.761
2,CGGACA,0.881
3,TACCAG,0.878
4,GCGGCG,0.844
5,AGATCG,0.519
6,AGGTAC,0.976
7,GGTCCG,0.761
8,CGTGAA,0.431
9,AGCAGT,0.718
10,AGTAGT,0.995
11,CGGTGA,0.468
12,TGTGAA,0.866
13,GTCATA,0.75
14,CATAGG,0.781
15,CCATGT,0.748
16,ACAGGG,0.921
17,GAGATA,0.674
18,TGACGT,0.809
19,TGGGTC,0.766

# Target: ETV6 (UniProt P41212)
# Assay: as above
# Conditions: 10 mM Tris-HCl pH 7.5, 50 mM NaCl, 1 mM DTT, 4% glycerol, room temperature, 30 min; GST-TFs on glutathione beads, 16-mer random dsDNA library, 0.1% …; high values mean tight binding; double strand, one strand shown; scale: fold enrichment (6-mer frequency, TF over GST control)
row,Sequence,binding signal
1,CGGGGG,0.455
2,TGTCGA,0.8
3,GAGTAC,0.567
4,GTAACG,0.92
5,CACAGG,0.882
6,GAGACA,0.385
7,GGGCGC,0.627
8,GGTGTG,0.729
9,TGCGTG,0.618
10,CGTGGT,0.523
11,GAGGTA,0.648
12,TCGGGT,0.597
13,GGGCCC,0.78
14,AGGCTG,0.623
15,CGGAAT,1.01
16,GTCGCC,0.846
17,CGTGAC,0.566
18,CAGTCG,0.173
19,GGACAG,0.585
20,CGGGTT,0.822

row,Sequence,binding signal
1,CCGCGA,0.658
2,CGGACA,0.808
3,TACCAG,0.854
4,GCGGCG,0.928
5,AGATCG,0.502
6,AGGTAC,0.923
7,GGTCCG,0.772
8,CGTGAA,0.428
9,AGCAGT,0.715
10,AGTAGT,0.989
11,CGGTGA,0.474
12,TGTGAA,0.769
13,GTCATA,0.662
14,CATAGG,0.682
15,CCATGT,0.851
16,ACAGGG,0.855
17,GAGATA,0.656
18,TGACGT,0.911
19,TGGGTC,0.654
